# Measurements as given in paper PMC5996148.
# “And” between values parts separate entries of the source, which are not always exact repeats. Identical values can stand only once. Some of the results follow. For some assays here: The source does not settle which construct or isoform was used.
# How the values were obtained:
# Assay in all cases: protein microarray (ProtoArray v5.0), streptavidin-Alexa Fluor 647
# Conditions in all cases: 3'-biotin; 20 mM Tris (pH 7.5), 5 mM MgCl2, 100 mM KCl, 0.1% Tween-20, A/T-rich and random oligonucleotide blockers; temperature not stated; high values mean tight binding
# CA9 = CA9 (UniProt Q16790)
# CACNG1 (human) = system: CACNG1 (human)
# CACYBP = CACYBP (UniProt Q9HB71)
# CALB1 (human) = system: CALB1 (human)
# CALM2 (human) = system: CALM2 (human)
# CALM3 = CALM3 (UniProt P0DP25)
# CAMK1D (human) = system: CAMK1D (human)
# CAMK4 (human) = system: CAMK4 (human)
# CANT1 (human) = system: CANT1 (human)
# CAPNS2 (human) = system: CAPNS2 (human)
# CAPS (human) = system: CAPS (human)
# CAPZA2 (human) = system: CAPZA2 (human)
# CARS = molecular target: T1, CARS (UniProt P49589)
# T1 sequence: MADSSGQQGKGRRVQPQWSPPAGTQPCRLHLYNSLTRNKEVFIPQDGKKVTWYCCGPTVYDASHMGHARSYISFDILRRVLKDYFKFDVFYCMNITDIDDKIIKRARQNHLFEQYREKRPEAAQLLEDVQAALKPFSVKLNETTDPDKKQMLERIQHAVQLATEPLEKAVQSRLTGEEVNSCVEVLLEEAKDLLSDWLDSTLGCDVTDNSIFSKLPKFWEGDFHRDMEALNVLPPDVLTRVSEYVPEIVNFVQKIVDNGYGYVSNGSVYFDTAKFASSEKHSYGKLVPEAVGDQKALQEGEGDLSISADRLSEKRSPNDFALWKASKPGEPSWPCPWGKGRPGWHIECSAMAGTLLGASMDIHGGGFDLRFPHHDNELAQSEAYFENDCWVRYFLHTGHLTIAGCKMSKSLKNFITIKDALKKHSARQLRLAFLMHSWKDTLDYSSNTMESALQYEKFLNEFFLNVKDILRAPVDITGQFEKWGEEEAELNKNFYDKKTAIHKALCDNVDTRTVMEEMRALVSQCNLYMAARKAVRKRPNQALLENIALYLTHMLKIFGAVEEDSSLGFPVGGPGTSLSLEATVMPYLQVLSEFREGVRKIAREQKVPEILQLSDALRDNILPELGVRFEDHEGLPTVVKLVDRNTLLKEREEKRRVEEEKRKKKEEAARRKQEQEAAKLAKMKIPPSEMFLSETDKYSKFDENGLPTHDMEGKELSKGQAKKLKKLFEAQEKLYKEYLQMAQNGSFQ
# CBS (human) = system: CBS (human)
# CBX5 = CBX5 (UniProt P45973)
# CCDC107 (human) = system: CCDC107 (human)
# CCDC131 = CCDC131 (UniProt O60293)
# CCDC32 (human) = system: CCDC32 (human)
# CCDC40 (human) = system: CCDC40 (human)
# CCDC43 = molecular target: T2, CCDC43 (UniProt Q96MW1)
# T2 sequence: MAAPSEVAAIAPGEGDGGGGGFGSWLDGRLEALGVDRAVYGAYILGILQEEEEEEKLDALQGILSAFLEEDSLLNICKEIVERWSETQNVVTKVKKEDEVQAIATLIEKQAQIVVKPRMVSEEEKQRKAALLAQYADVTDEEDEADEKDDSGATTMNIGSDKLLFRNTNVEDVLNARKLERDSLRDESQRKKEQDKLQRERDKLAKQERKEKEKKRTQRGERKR
sequence,measurement,setting,value
GGTGACAGGGGTATGGGGAGGGG [G4-2 biotinylated (Ct1)],binding signal,CA9,-0.394 z-score
same,binding signal,CACNG1 (human),-0.377 z-score
same,binding signal,CACYBP,4.32 z-score
same,binding signal,CALB1 (human),-0.374 z-score
same,binding signal,CALM2 (human),-0.386 z-score
same,binding signal,CALM3,-0.385 z-score
same,binding signal,CAMK1D (human),-0.387 z-score and -0.378 z-score
same,binding signal,CAMK4 (human),-0.391 z-score
same,binding signal,CANT1 (human),-0.377 z-score
same,binding signal,CAPNS2 (human),-0.391 z-score
same,binding signal,CAPS (human),-0.406 z-score and -0.4 z-score
same,binding signal,CAPZA2 (human),-0.382 z-score
same,binding signal,CARS,4.7 z-score
same,binding signal,CBS (human),-0.394 z-score
same,binding signal,CBX5,3.82 z-score
same,binding signal,CCDC107 (human),-0.394 z-score
same,binding signal,CCDC131,3.5 z-score
same,binding signal,CCDC32 (human),-0.404 z-score
same,binding signal,CCDC40 (human),-0.38 z-score
same,binding signal,CCDC43,4.18 z-score
